{"source": "PubChem BioAssay AID686943, Drosophila RNAi Screening Center | 2013", "screen": "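Search across the genome for regulators of signalling from receptor tyrosine kinase to ERK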 (primary screen)", "cells": "Drosophila S2R+ haemocyte-like cells expressing YFP-tagged ERK (Rolled)", "reagents": "long dsRNA against Drosophila genes", "challenge": "insulin stimulation versus unstimulated cells; dose and duration not given", "detection": "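Antibody staining for doubly phosphorylated ERK divided by ERK-YFP signal, as plate z-scores, in insulin-treated and untreated cells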", "scale": "replicate 1, z-score of dpERK with insulin and replicate 2, z-score of dpERK with insulin: higher = more active ERK per ERK-YFP after insulin", "note": "In all, the deposit lists about 23,000 reagents; this is a random part of those that have a named target and a result. 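Extra replicates exist only for a retested subset of genes; insulin dose and duration not given; both raised and lowered dpERK matter.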 A plus sign joins genes that one reagent is predicted to hit. Further read-outs or replicates are left out here. No sequences are given here. Not stated in the record: the amount of reagent, the time to read-out."}
{"gene": "Ucp4B + asRNA:CR43465", "DRSC id": "DRSC02665", "replicate 1, z-score of dpERK with insulin": -0.58, "replicate 2, z-score of dpERK with insulin": 0.6}
{"gene": "CG32726", "DRSC id": "DRSC17521", "replicate 1, z-score of dpERK with insulin": 0.47, "replicate 2, z-score of dpERK with insulin": 0.21}
{"gene": "CG13786", "DRSC id": "DRSC02289", "replicate 1, z-score of dpERK with insulin": 1.7, "replicate 2, z-score of dpERK with insulin": 2.32}
{"gene": "CG13539", "DRSC id": "DRSC04181", "replicate 1, z-score of dpERK with insulin": 0.62, "replicate 2, z-score of dpERK with insulin": 0.85}
{"gene": "l(1)G0020", "DRSC id": "DRSC18198", "replicate 1, z-score of dpERK with insulin": -0.64, "replicate 2, z-score of dpERK with insulin": 0.43}
{"gene": "mRpL42", "DRSC id": "DRSC06235", "replicate 1, z-score of dpERK with insulin": -0.38, "replicate 2, z-score of dpERK with insulin": -0.95}
{"gene": "IntS2", "DRSC id": "DRSC20094", "replicate 1, z-score of dpERK with insulin": -2.75, "replicate 2, z-score of dpERK with insulin": -1.05}
{"gene": "Su(dx)", "DRSC id": "DRSC00791", "replicate 1, z-score of dpERK with insulin": 0.65, "replicate 2, z-score of dpERK with insulin": 0.2}
{"gene": "CG8738", "DRSC id": "DRSC07256", "replicate 1, z-score of dpERK with insulin": 0.15, "replicate 2, z-score of dpERK with insulin": 0.72}
{"gene": "CG42394 + CG6567", "DRSC id": "DRSC12821", "replicate 1, z-score of dpERK with insulin": -0.29, "replicate 2, z-score of dpERK with insulin": 0.82}
{"gene": "psq", "DRSC id": "DRSC07668", "replicate 1, z-score of dpERK with insulin": -3.34, "replicate 2, z-score of dpERK with insulin": -4.73}
{"gene": "Dcps", "DRSC id": "DRSC12299", "replicate 1, z-score of dpERK with insulin": -0.57, "replicate 2, z-score of dpERK with insulin": 0.23}
{"gene": "Ccdc56 + mtTFB1", "DRSC id": "DRSC10809", "replicate 1, z-score of dpERK with insulin": 0.25, "replicate 2, z-score of dpERK with insulin": -1.13}
{"gene": "Drsl3", "DRSC id": "DRSC22630", "replicate 1, z-score of dpERK with insulin": 1.61, "replicate 2, z-score of dpERK with insulin": 1.36}
{"gene": "Ir85a", "DRSC id": "DRSC14382", "replicate 1, z-score of dpERK with insulin": 0.26, "replicate 2, z-score of dpERK with insulin": -0.04}
{"gene": "CG16741", "DRSC id": "DRSC06622", "replicate 1, z-score of dpERK with insulin": 0.07, "replicate 2, z-score of dpERK with insulin": 0.36}
{"gene": "scra", "DRSC id": "DRSC07679", "replicate 1, z-score of dpERK with insulin": -0.86, "replicate 2, z-score of dpERK with insulin": 0.88}
{"gene": "brv3", "DRSC id": "DRSC18657", "replicate 1, z-score of dpERK with insulin": 0.5, "replicate 2, z-score of dpERK with insulin": -0.04}
{"gene": "CG14355", "DRSC id": "DRSC14818", "replicate 1, z-score of dpERK with insulin": -0.31, "replicate 2, z-score of dpERK with insulin": 0.13}
{"gene": "CG15147", "DRSC id": "DRSC02447", "replicate 1, z-score of dpERK with insulin": 0.1, "replicate 2, z-score of dpERK with insulin": 0.39}
{"gene": "CG15147", "DRSC id": "DRSC02448", "replicate 1, z-score of dpERK with insulin": -1.04, "replicate 2, z-score of dpERK with insulin": -0.32}

2 entries already listed, ordered by “replicate 1, z-score of dpERK with insulin”, lowest first.
{"gene": "psq", "DRSC id": "DRSC07668", "replicate 1, z-score of dpERK with insulin": -3.34, "replicate 2, z-score of dpERK with insulin": -4.73}
{"gene": "Dcps", "DRSC id": "DRSC12299", "replicate 1, z-score of dpERK with insulin": -0.57, "replicate 2, z-score of dpERK with insulin": 0.23}
